Test results: the supplement of paper PMC7052299
This is one part of the list. Most values come without repeats; read them as rough.

Test system: Danio rerio embryo (th-expressing DA/NA neurons)
Experiment: percentage of embryos with altered th expression (decrease or increase vs DMSO control) in brain region; higher = more embryos with altered dopaminergic/noradrenergic marker expression; extreme values may be limits of the assay
Settings: treatment window: 24-72 hpf, fixed 96 hpf
[1] = 1 µM, brain region: telencephalon
[2] = 3 µM, brain region: telencephalon
[3] = 10 µM, brain region: telencephalon
[4] = 30 µM, brain region: telencephalon

Measured: percentage of embryos with altered th expression

CCCc1cc(C)[nH]c(=O)c1CNC(=O)c1cc(-c2ccnc(N3CCN(C)CC3)c2)cc2c1cnn2C(C)C
0%: 1 µM, brain region: DC1 | 1 µM, brain region: DC2 | 1 µM, brain region: DC3 | 1 µM, brain region: DC 4,5,6 | 1 µM, brain region: LC | 1 µM, brain region: MO | 1 µM, brain region: Pretectum | [1] | 3 µM, brain region: DC1 | 3 µM, brain region: DC2 | 3 µM, brain region: DC3 | 3 µM, brain region: DC 4,5,6 | 3 µM, brain region: LC | 3 µM, brain region: MO | 3 µM, brain region: Pretectum | [2] | 10 µM, brain region: DC1 | 10 µM, brain region: DC2 | 10 µM, brain region: DC3 | 10 µM, brain region: DC 4,5,6 | 10 µM, brain region: LC | 10 µM, brain region: MO | 10 µM, brain region: Pretectum | [3] | 30 µM, brain region: DC1 | 30 µM, brain region: DC2 | 30 µM, brain region: DC3 | 30 µM, brain region: DC 4,5,6 | 30 µM, brain region: LC | 30 µM, brain region: MO | 30 µM, brain region: Pretectum | [4]

COc1cc2c(NC3CCN(CC4CCCCC4)CC3)nc(N3CCCN(C(C)C)CC3)nc2cc1OCCCN1CCCCC1
20%: 3 µM, brain region: DC1 | 3 µM, brain region: DC2 | 3 µM, brain region: DC3 | 3 µM, brain region: DC 4,5,6 | 3 µM, brain region: LC | 3 µM, brain region: MO | 3 µM, brain region: Pretectum | [2]
0%: 1 µM, brain region: DC1 | 1 µM, brain region: DC2 | 1 µM, brain region: DC3 | 1 µM, brain region: DC 4,5,6 | 1 µM, brain region: LC | 1 µM, brain region: MO | 1 µM, brain region: Pretectum | [1] | 10 µM, brain region: DC1 | 10 µM, brain region: DC2 | 10 µM, brain region: DC3 | 10 µM, brain region: DC 4,5,6 | 10 µM, brain region: LC | 10 µM, brain region: MO | 10 µM, brain region: Pretectum | [3]
22.2%: 30 µM, brain region: DC1 | 30 µM, brain region: DC2 | 30 µM, brain region: DC3 | 30 µM, brain region: DC 4,5,6 | 30 µM, brain region: LC | 30 µM, brain region: MO | 30 µM, brain region: Pretectum | [4]

O=C(O)c1ccc(-n2nc(-c3ccccc3O)nc2-c2ccccc2O)cc1 [Deferasirox]
0%: [1] | [2] | 10 µM, brain region: DC1 | 10 µM, brain region: DC2 | 10 µM, brain region: DC3 | 10 µM, brain region: DC 4,5,6 | 10 µM, brain region: LC | 10 µM, brain region: MO | 10 µM, brain region: Pretectum | [3] | 30 µM, brain region: DC1 | 30 µM, brain region: DC2 | 30 µM, brain region: DC3 | 30 µM, brain region: DC 4,5,6 | 30 µM, brain region: LC | 30 µM, brain region: MO | 30 µM, brain region: Pretectum | [4]

COc1cc(/C=C/C(=O)CC(=O)/C=C/c2ccc(O)c(OC)c2)ccc1O [Curcumin]
7.69%: 1 µM, brain region: DC 4,5,6
16.7%: 10 µM, brain region: DC 4,5,6 | 10 µM, brain region: LC | 30 µM, brain region: DC 4,5,6 | [4]
0%: 1 µM, brain region: DC1 | 1 µM, brain region: DC2 | 1 µM, brain region: DC3 | 1 µM, brain region: LC | 1 µM, brain region: MO | 1 µM, brain region: Pretectum | [1] | 3 µM, brain region: DC1 | 3 µM, brain region: DC2 | 3 µM, brain region: DC3 | 3 µM, brain region: DC 4,5,6 | 3 µM, brain region: LC | 3 µM, brain region: MO | 3 µM, brain region: Pretectum | [2] | 10 µM, brain region: DC1 | 10 µM, brain region: DC2 | 10 µM, brain region: DC3 | 10 µM, brain region: MO | 10 µM, brain region: Pretectum | [3] | 30 µM, brain region: DC1 | 30 µM, brain region: DC2 | 30 µM, brain region: DC3 | 30 µM, brain region: LC | 30 µM, brain region: MO | 30 µM, brain region: Pretectum

O=C([C@@H](Cc1cccc(C(F)(F)F)c1)NS(=O)(=O)c1cc(F)c2c(c1)CCNC2)N1CCCC1
0%: 1 µM, brain region: DC1 | 1 µM, brain region: DC2 | 1 µM, brain region: DC3 | 1 µM, brain region: DC 4,5,6 | 1 µM, brain region: LC | 1 µM, brain region: MO | 1 µM, brain region: Pretectum | [1] | 3 µM, brain region: DC1 | 3 µM, brain region: DC2 | 3 µM, brain region: DC3 | 3 µM, brain region: DC 4,5,6 | 3 µM, brain region: LC | 3 µM, brain region: MO | 3 µM, brain region: Pretectum | [2] | 10 µM, brain region: DC1 | 10 µM, brain region: DC2 | 10 µM, brain region: DC3 | 10 µM, brain region: DC 4,5,6 | 10 µM, brain region: LC | 10 µM, brain region: MO | 10 µM, brain region: Pretectum | [3] | 30 µM, brain region: DC1 | 30 µM, brain region: DC2 | 30 µM, brain region: DC3 | 30 µM, brain region: DC 4,5,6 | 30 µM, brain region: LC | 30 µM, brain region: MO | 30 µM, brain region: Pretectum | [4]

Cc1cc(=O)n(C)c2cc(N3C(=O)CC[C@H](NS(=O)(=O)CC(C)C)[C@H]3c3ccc(Cl)cc3)ccc12
0%: 1 µM, brain region: DC1 | 1 µM, brain region: DC2 | 1 µM, brain region: DC3 | 1 µM, brain region: DC 4,5,6 | 1 µM, brain region: LC | 1 µM, brain region: MO | 1 µM, brain region: Pretectum | [1] | 3 µM, brain region: DC1 | 3 µM, brain region: DC2 | 3 µM, brain region: DC3 | 3 µM, brain region: DC 4,5,6 | 3 µM, brain region: LC | 3 µM, brain region: MO | 3 µM, brain region: Pretectum | [2] | 10 µM, brain region: DC1 | 10 µM, brain region: DC2 | 10 µM, brain region: DC3 | 10 µM, brain region: DC 4,5,6 | 10 µM, brain region: LC | 10 µM, brain region: MO | 10 µM, brain region: Pretectum | [3] | 30 µM, brain region: DC1 | 30 µM, brain region: DC2 | 30 µM, brain region: DC3 | 30 µM, brain region: DC 4,5,6 | 30 µM, brain region: LC | 30 µM, brain region: MO | 30 µM, brain region: Pretectum | [4]

Random excerpt: two records from the list.
COc1cc(/C=C/C(=O)CC(=O)/C=C/c2ccc(O)c(OC)c2)ccc1O [Curcumin]
7.69%: 1 µM, brain region: DC 4,5,6
16.7%: 10 µM, brain region: DC 4,5,6 | 10 µM, brain region: LC | 30 µM, brain region: DC 4,5,6 | [4]
0%: 1 µM, brain region: DC1 | 1 µM, brain region: DC2 | 1 µM, brain region: DC3 | 1 µM, brain region: LC | 1 µM, brain region: MO | 1 µM, brain region: Pretectum | [1] | 3 µM, brain region: DC1 | 3 µM, brain region: DC2 | 3 µM, brain region: DC3 | 3 µM, brain region: DC 4,5,6 | 3 µM, brain region: LC | 3 µM, brain region: MO | 3 µM, brain region: Pretectum | [2] | 10 µM, brain region: DC1 | 10 µM, brain region: DC2 | 10 µM, brain region: DC3 | 10 µM, brain region: MO | 10 µM, brain region: Pretectum | [3] | 30 µM, brain region: DC1 | 30 µM, brain region: DC2 | 30 µM, brain region: DC3 | 30 µM, brain region: LC | 30 µM, brain region: MO | 30 µM, brain region: Pretectum

O=C(O)c1ccc(-n2nc(-c3ccccc3O)nc2-c2ccccc2O)cc1 [Deferasirox]
0%: [1] | [2] | 10 µM, brain region: DC1 | 10 µM, brain region: DC2 | 10 µM, brain region: DC3 | 10 µM, brain region: DC 4,5,6 | 10 µM, brain region: LC | 10 µM, brain region: MO | 10 µM, brain region: Pretectum | [3] | 30 µM, brain region: DC1 | 30 µM, brain region: DC2 | 30 µM, brain region: DC3 | 30 µM, brain region: DC 4,5,6 | 30 µM, brain region: LC | 30 µM, brain region: MO | 30 µM, brain region: Pretectum | [4]

Carrying on:

O=C(/C=C/N1C[C@H]2C[C@@H]1CN2c1ccccn1)c1ccccc1O
11.1%: 10 µM, brain region: DC 4,5,6
16.7%: [4]
0%: 1 µM, brain region: DC1 | 1 µM, brain region: DC2 | 1 µM, brain region: DC3 | 1 µM, brain region: DC 4,5,6 | 1 µM, brain region: LC | 1 µM, brain region: MO | 1 µM, brain region: Pretectum | [1] | 3 µM, brain region: DC1 | 3 µM, brain region: DC2 | 3 µM, brain region: DC3 | 3 µM, brain region: DC 4,5,6 | 3 µM, brain region: LC | 3 µM, brain region: MO | 3 µM, brain region: Pretectum | [2] | 10 µM, brain region: DC1 | 10 µM, brain region: DC2 | 10 µM, brain region: DC3 | 10 µM, brain region: LC | 10 µM, brain region: MO | 10 µM, brain region: Pretectum | [3] | 30 µM, brain region: DC1 | 30 µM, brain region: DC2 | 30 µM, brain region: DC3 | 30 µM, brain region: DC 4,5,6 | 30 µM, brain region: LC | 30 µM, brain region: MO
33.3%: 30 µM, brain region: Pretectum

O=c1c(Cl)c(C(F)(F)F)oc2ccc([N+](=O)[O-])cc12 [Namoline]
8.33%: 10 µM, brain region: Pretectum
25%: 10 µM, brain region: DC3 | [3]
0%: 1 µM, brain region: DC1 | 1 µM, brain region: DC2 | 1 µM, brain region: DC3 | 1 µM, brain region: DC 4,5,6 | 1 µM, brain region: LC | 1 µM, brain region: MO | 1 µM, brain region: Pretectum | 3 µM, brain region: DC1 | 3 µM, brain region: DC3 | 3 µM, brain region: LC | 3 µM, brain region: MO | 3 µM, brain region: Pretectum | 10 µM, brain region: DC1 | 10 µM, brain region: DC2 | 10 µM, brain region: MO | [4]
14.3%: [1] | 3 µM, brain region: DC2 | [2]
28.6%: 3 µM, brain region: DC 4,5,6
83.3%: 10 µM, brain region: DC 4,5,6
33.3%: 10 µM, brain region: LC

COc1ccc(CCc2nc3cc(-c4c(C)noc4C)ccc3n2C[C@H](C)N2CCOCC2)cc1Cl
7.69%: [3]
0%: 1 µM, brain region: DC1 | 1 µM, brain region: DC2 | 1 µM, brain region: DC3 | 1 µM, brain region: DC 4,5,6 | 1 µM, brain region: LC | 1 µM, brain region: MO | 1 µM, brain region: Pretectum | [1] | 3 µM, brain region: DC1 | 3 µM, brain region: DC2 | 3 µM, brain region: DC3 | 3 µM, brain region: DC 4,5,6 | 3 µM, brain region: LC | 3 µM, brain region: MO | 3 µM, brain region: Pretectum | [2] | 10 µM, brain region: DC1 | 10 µM, brain region: DC2 | 10 µM, brain region: DC3 | 10 µM, brain region: DC 4,5,6 | 10 µM, brain region: LC | 10 µM, brain region: MO | 30 µM, brain region: DC1 | 30 µM, brain region: DC2 | 30 µM, brain region: DC3 | 30 µM, brain region: DC 4,5,6 | 30 µM, brain region: LC | 30 µM, brain region: MO | 30 µM, brain region: Pretectum | [4]
15.4%: 10 µM, brain region: Pretectum
